Test results: US11820827B2, “Methods of treating myelodysplastic syndrome and acute myeloid leukemia with nonfucosylated anti-CD70 antibodies” (Seagen Inc., priority 2019, dated 2023)
At least one structure is not confirmed: it was looked up by name or label, or the drawing left a doubt.

Test system: MV4-11 AML xenograft
Assay: Tumor growth in the MV4-11 AML xenograft model, SEA-CD70, azacitidine, venetoclax (Example 11)
Type: in vivo, SCID mice
Conditions: antibody 10 mg/kg Q4dx5, azacitidine 2 mg/kg Q1dx5 3 cycles, venetoclax 25 mg/kg oral Q1dx21; comparisons at day 39
Excerpt: Tumor growth was reported as a volume and calculated as an average across animals within each treatment group (FIG. 11A). Immunocompromised SCID mice were implanted with 5×10e6 MV4-11 cells subcutaneously in the flank on day 0. When mean tumor size of 50 mm^3 (measured by using the formula: Volume (mm^3)=0.5*Length*Width^2, where the length is the longer dimension) was reached, mice were randomized into treatment groups of 10 mice per group. Stock concentrations of antibody and chemotherapy were diluted to the appropriate concentration and injected into animals at 10 μl/g of body weight. Tumor length and width, and animal weight were measured two times weekly throughout the study and tumor volume was calculated using the formula above. Animals were followed until tumor volume measured ˜1000 mm^3, at which time the animals were euthanized. Animals were dosed on various schedules based on treatment received; animals receiving antibody were treated with 10 mg/kg of antibody (Q4dx5), azacitidine-treated animals were dosed daily (2 mg/kg) for five consecutive days (Q1dx5) each week, for a total of 3 cycles (3 weeks); venetoclax was given at 25 mg/kg every day by oral gavage for 21 days consecutively (Q1dx21). Animal receiving combination of treatments received each treatment at the same dose and schedule as the single treatments.

## CC1(C)CCC(CN2CCN(c3ccc(C(=O)NS(=O)(=O)c4ccc(NCC5CCOCC5)c([N+](=O)[O-])c4)c(Oc4cnc5[nH]ccc5c4)c3)CC2)=C(c2ccc(Cl)cc2)C1 [venetoclax]
  effect on tumor growth: delay tumor growth
